Drawing on publication PMC12412656, this text covers binding for 1 substance.

These are yes or no findings as the source states them, for the method shown. A result given as binding can be weak or reduced; the word gives no strength.

For this assay, the target named is T1, paxillin LD1 (3-23C) synthetic peptide, fluorescein-labelled.
T1 sequence (peptide, fluorescein coupled via the terminal (C-terminal, non-native) cysteine): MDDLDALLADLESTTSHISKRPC
In words: fluorescence polarisation; R7R8 serially diluted (maximum 160 μM) into 0.5 μM fluorescein-labelled peptide; PBS with 1 mM TCEP and 0.02% Tween-20; room temperature; triplicate; one-site total binding model; both purified. (In fluorescence polarisation assays a small probe gives low polarisation when free and higher when bound to something large.)

Turning to “talin 1 R7R8 domain protein (mouse) (domain or fragment)”, the binding entry was “binds weakly”.
